For at least one compound, name, drawing or mass did not settle the structure. Some entries share one result that the patent states for a list of compounds.
Tests used:
[1] = test system: ET-1-induced pressor response; assay: ET-1-induced pressor responses in conscious, autonomically blocked rats; type: in vivo, rat; conditions: dosages of 60 mg/kg
Description: Animals were placed in a restrainer and allowed to regain consciousness. Thirty minutes later autonomic blockade was administered (atropine methyl nitrate, 3 mg/kg, IV, followed by propranalol, 2 mg/kg, IV). An hour later animals received a bolus injection of vehicle (0.5 ml) followed thirty minutes later by intravenous bolus administration of ET-1 (Control, 1 μg/kg). Following recovery from this challenge, test-compounds were administered by intravenous bolus administration (0.5 ml) and then re-challenged with ET-1 thirty minutes later. Results are expressed as the percent inhibition of the ET-1-induced pressor response after administration of the test compound compared to the pressor response induced by the control ET-1 challenge. In some cases a third ET-1 challenge was administered ninety minutes after administration of the test compound.

[2] = test system: DOCA-salt hypertensive rat; assay: Deoxycorticosterone acetate (DOCA)-salt hypertensive rat model; type: in vivo
Description: E. Deoxycorticosterone Acetate (DOCA)-Salt Hypertensive Rat Model for Assessing in vivo Activity of Selected Compounds
Selected compounds disclosed herein have been tested for activity in the deoxycorticosterone acetate (DOCA)-salt hypertensive rat model. To perform these tests, silastic MDX4-4210 elastomer implants containing 47 mg (DOCA) were prepared according to the method of Ornmsbee et al. ((1973) the J. Pharm. Sci. 62:255-257). Briefly, DOCA is incorporated into silicon rubber implants for sustained release. To prepare the implants the DOCA is incorporated into unpolymerized silicone rubber, catalyst is added and the mixture is cast in a hemicylindrical shape.
Sprague Dawley rats (7-8 weeks old) were unilaterally nephrectomized under ketamine anesthesia and a DOCA-implant was placed on the left lateral dorsal abdomen of the animal. The rats were allowed to recover for three weeks. […]
On the day of experimentation, catheters were inserted under brevital anesthesia into the right femoral artery for measurement of blood pressure, and into the right femoral vein for administration of a selected compound. The animals were placed in a restrainer and allowed to recover for a minimum of 60 min or until a steady mean arterial blood pressure was recorded. […] Blood pressure was recorded continuously for a further 10 hrs.

Cc1cc2c(cc1CC(=O)c1sccc1S(=O)(=O)Nc1onc(C)c1Cl)OCO2 [N-(4-chloro-3-methyl-5-isoxazolyl)-2-[2-methyl-4,5-(methylenedioxy)phenylacetyl]thiophene-3-sulfonamide]
reduction of pressure [1]: more than 50%

COc1ccc(NC(=O)c2sccc2S(=O)(=O)Nc2onc(C)c2Cl)c(C)c1 [N-(4-chloro-3-methyl-5-isoxazolyl)-2-[4-methoxy-2-methylphenyl)aminocarbonyl]thiophene-3-sulfonamide]
reduction of pressure [1]: more than 50%

Cc1noc(NS(=O)(=O)c2ccsc2C(=O)Cc2ccc3c(c2)OCO3)c1Cl [N-(4-chloro-3-methyl-5-isoxazolyl)-2-[(3,4-(methylenedioxy)phenylacetyl]thiophene-3-sulfonamide]
reduction of pressure [1]: more than 50%

Cc1noc(NS(=O)(=O)c2c(Cc3ccc4c(c3)OCO4)sc3ccccc23)c1Cl [N-(4-chloro-3-methyl-5-isoxazolyl)-2-[(3,4-methylenedioxy)benzyl]benzo[b]thiophene-3-sulfonamide]
effect on blood pressure [2]: effective in decreasing blood pressure

COc1cc(C#N)c(NC(=O)c2sccc2S(=O)(=O)Nc2onc(C)c2Cl)cc1OC [N-(4-chloro-3-methyl-5-isoxazolyl)-2-[{2-cyano-4,5-dimethoxyphenyl)aminocarbonyl]thiophene-3-sulfonamide]
reduction of pressure [1]: more than 50%

CC(=O)c1cc2c(cc1NC(=O)c1sccc1S(=O)(=O)Nc1onc(C)c1Cl)OCO2 [N-(4-chloro-3-methyl-5-isoxazolyl)-2-{[2-acetyl-4,5-(methylenedioxy)phenyl]aminocarbonyl}thiophene-3-sulfonamide]
reduction of pressure [1]: more than 50%
